In article PMC8069214, “Synthesis, Biological Evaluation, and Molecular Modeling of Aza-Crown Ethers” (Molecules, 2021):
Results are given in words; binding and its absence hold for the method and conditions named. Some results given as binding are weak or reduced against the parent protein; the word gives no strength.

Amino acid sequences for entries named in this document (tags omitted).
UniProt P21462: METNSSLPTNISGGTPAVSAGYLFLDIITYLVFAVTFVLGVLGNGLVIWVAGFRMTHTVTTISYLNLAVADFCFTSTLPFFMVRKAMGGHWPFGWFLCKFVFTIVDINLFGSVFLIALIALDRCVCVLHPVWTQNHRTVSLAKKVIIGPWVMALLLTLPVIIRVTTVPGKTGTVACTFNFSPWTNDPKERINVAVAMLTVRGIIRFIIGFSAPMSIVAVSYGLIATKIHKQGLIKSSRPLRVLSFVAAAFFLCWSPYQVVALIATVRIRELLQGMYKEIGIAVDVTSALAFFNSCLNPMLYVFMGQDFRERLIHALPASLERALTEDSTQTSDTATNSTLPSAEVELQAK

Biological target: N-formyl peptide receptor 1 (human) (UniProt P21462)
Test: flow cytometry on cells; competition binding: FPR1-HL60 cells preincubated with test compound 30 min at 4 °C, then 0.5 nM WKYMVm-FITC for 30 min at 4 °C, read without washing; controls 1 µM unlabeled fMLF or buffer; only the binder purified

B1: WKYMVm-FITC (Trp-Lys-Tyr-Met-Val-D-Met with fluorescein isothiocyanate on the lysine residue) (peptide)
peptide: WKYMVM
modifications: D-Met at position 6 (printed as m); FITC conjugated to the lysine residue
binding: binds
